Legend:
[1] = target: T1, Tyrosine-protein kinase JAK3 (Homo sapiens, UniProt P52333)
T1 sequence (P52333 whole entry): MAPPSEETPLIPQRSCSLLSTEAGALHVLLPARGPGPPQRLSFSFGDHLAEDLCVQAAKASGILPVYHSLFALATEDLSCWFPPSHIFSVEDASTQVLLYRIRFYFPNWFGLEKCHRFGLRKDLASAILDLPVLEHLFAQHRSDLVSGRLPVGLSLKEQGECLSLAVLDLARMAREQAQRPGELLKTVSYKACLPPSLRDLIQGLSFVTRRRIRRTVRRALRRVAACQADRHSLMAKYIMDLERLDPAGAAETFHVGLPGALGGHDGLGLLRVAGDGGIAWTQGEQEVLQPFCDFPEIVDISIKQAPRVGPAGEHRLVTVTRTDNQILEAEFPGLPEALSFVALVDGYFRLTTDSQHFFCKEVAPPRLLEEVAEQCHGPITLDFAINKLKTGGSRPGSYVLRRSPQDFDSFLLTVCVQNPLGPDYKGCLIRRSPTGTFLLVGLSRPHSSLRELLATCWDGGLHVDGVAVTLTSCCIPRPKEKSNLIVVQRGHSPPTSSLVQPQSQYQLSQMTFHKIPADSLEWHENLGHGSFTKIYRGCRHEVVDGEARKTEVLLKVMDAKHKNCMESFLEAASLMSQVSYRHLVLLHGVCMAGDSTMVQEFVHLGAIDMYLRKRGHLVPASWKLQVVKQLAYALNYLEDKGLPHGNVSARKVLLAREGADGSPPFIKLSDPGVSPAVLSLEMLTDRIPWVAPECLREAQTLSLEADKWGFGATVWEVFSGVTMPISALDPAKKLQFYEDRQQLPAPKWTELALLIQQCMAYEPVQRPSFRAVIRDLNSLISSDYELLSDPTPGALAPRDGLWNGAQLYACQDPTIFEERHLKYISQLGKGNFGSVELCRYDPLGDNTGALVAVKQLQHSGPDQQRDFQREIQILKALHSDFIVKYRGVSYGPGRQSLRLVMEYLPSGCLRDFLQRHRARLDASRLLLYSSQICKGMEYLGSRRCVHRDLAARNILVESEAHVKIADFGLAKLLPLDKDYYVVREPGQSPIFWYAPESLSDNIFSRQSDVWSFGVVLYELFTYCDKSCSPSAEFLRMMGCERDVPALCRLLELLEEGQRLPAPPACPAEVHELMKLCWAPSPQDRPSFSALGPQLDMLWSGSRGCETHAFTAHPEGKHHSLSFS

The chains behind the UniProt entries cited, without tags or fusion partners. Where a name states a change or a piece, a line headed by the entry shows the natural chain unless it says otherwise.
UniProt P23458: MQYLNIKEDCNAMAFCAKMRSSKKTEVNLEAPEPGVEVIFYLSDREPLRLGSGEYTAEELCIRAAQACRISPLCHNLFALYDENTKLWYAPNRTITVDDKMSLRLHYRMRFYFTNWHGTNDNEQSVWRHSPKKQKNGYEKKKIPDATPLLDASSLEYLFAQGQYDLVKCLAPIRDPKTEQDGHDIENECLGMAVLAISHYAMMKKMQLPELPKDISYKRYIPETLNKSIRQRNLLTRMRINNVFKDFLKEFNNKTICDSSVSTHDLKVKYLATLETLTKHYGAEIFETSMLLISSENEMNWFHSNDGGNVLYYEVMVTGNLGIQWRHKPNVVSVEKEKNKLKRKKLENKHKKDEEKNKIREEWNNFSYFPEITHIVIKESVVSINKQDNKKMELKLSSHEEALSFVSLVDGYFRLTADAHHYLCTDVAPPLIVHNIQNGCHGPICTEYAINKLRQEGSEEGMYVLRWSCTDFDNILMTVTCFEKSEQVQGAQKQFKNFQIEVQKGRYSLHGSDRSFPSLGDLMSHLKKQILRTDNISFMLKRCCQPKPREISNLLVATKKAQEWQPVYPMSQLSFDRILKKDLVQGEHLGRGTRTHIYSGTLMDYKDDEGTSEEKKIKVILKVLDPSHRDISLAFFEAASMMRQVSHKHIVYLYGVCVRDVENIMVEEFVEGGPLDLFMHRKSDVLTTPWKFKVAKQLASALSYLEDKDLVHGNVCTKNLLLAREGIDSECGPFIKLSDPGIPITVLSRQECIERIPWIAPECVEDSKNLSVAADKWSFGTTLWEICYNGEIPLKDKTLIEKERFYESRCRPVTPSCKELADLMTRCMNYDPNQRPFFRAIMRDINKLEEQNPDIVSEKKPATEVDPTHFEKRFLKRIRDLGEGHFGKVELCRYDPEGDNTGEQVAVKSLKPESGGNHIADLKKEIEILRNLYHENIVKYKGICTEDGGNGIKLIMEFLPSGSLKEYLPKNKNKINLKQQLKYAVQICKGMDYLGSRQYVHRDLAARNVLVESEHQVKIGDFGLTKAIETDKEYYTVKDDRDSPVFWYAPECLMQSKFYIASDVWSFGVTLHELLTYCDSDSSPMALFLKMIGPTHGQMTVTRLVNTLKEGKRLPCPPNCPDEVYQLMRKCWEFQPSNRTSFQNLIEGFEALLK

[2] = target: T1, Tyrosine-protein kinase JAK3; remark: listed apart in the source
[3] = target: JAK3/JAK1 (Homo sapiens, UniProt P23458+P52333); assay type: protein-complex assay, Blood

## CC[C@@](C)(Nc1ccnc(-c2c[nH]c3ncccc23)n1)C(=O)NCC(F)(F)F [DECERNOTINIB]
[1]
  IC50: 74.4 nM
  Ki: 2.5 nM
[2]
  IC50: 1.2 nM
[3]
  IC50: 932 nM
